Results taken from US20240000803A1, “ORAL FORMULATION OF BIOLOGICALLY ACTIVE MATERIAL CONJUGATE HAVING BIOTIN MOIETY, FATTY ACID MOIETY, OR COMBINATION THEREOF COUPLED THERETO” (D&D Pharmatech Inc., priority 2020, published 2024).
At least one peptide structure holds a part that was inferred or is arguable (an end, a ring closure or a residue). Where a SMILES comes first, the peptide text is derived from it. Bridges are numbered along the chain shown (N, C = ends). The star is where a group is joined. Biotin = O=C1N[C@H]2[C@H](CS[C@H]2CCCCC(=O)*)N1

Assay: Weight reduction and feed intake reduction over 24 hours after oral administration
Assay type: in vivo
Details: mice, formulation with sodium chenodeoxycholate and propyl gallate (Table 13)
Protocol: Physiologically active substances bound to a biotin moiety, fatty acid moiety or a combination thereof, prepared in accordance with the above example, were formulated by dissolving in a vehicle (0.02% polysorbate 80 in 10 mM PBS (pH 7.4)) with the compositions of excipients shown in Table 13, then administered orally to mice. Weight reduction and feed intake reduction were measured over 24 hours.

SMILES: CC[C@H](C)[C@H](NC(=O)[C@H](C)NC(=O)CNC(=O)[C@H](Cc1ccccc1)NC(=O)[C@H](CC(N)=O)NC(=O)[C@H](CC(N)=O)NC(=O)[C@H](CO)NC(=O)[C@H](CO)NC(=O)[C@H](Cc1c[nH]cn1)NC(=O)[C@H](CCCNC(=N)N)NC(=O)[C@H](CC(C)C)NC(=O)[C@H](Cc1ccccc1)NC(=O)[C@H](CC(=O)O)NC(=O)[C@H](C)NC(=O)[C@H](CC(C)C)NC(=O)[C@H](CCCNC(=N)N)NC(=O)[C@H](CCC(N)=O)NC(=O)[C@@H](NC(=O)[C@H](C)NC(=O)[C@@H]1CSSC[C@H](NC(=O)[C@@H](N)CCCNC(=N)N)C(=O)N[C@@H](CC(N)=O)C(=O)N[C@@H]([C@@H](C)O)C(=O)N[C@@H](C)C(=O)N[C@@H]([C@@H](C)O)C(=O)N1)[C@@H](C)O)C(=O)N1CCC[C@H]1C(=O)N[C@@H](CO)C(=O)N[C@@H](CO)C(=O)N[C@H](C(=O)N[C@@H](CC(N)=O)C(=O)N[C@H](C(=O)NCC(=O)N[C@@H](CO)C(=O)N[C@@H](CCCCNC(=O)CCCC[C@@H]1SC[C@@H]2NC(=O)N[C@@H]21)C(=O)N[C@H](C(=O)N[C@@H](Cc1ccc(O)cc1)C(N)=O)[C@@H](C)O)C(C)C)[C@@H](C)O [Conjugate 42] (H-RCNTATCATQRLADFLRHSSNNFGAIPSSTNVGSK(Biotin)TY-NH2; disulfide 2-7)
- Weight loss compared to untreated group (%): −2.60 ± 0.62%
